For the test, the target named is T1, FLAG-AP1μ1A (human) (UniProt Q9BXS5).
T1 sequence: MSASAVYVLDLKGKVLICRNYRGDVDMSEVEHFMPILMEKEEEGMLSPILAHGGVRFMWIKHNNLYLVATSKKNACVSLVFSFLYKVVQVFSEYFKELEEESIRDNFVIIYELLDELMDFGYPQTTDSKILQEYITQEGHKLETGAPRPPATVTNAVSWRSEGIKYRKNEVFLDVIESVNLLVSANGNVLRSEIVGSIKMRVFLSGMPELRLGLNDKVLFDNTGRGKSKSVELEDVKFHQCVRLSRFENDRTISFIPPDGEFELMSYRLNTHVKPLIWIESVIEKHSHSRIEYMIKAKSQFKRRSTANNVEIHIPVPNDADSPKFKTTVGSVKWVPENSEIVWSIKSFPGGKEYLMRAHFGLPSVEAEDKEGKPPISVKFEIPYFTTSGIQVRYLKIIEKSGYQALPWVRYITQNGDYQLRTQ
Nature of the test: co-IP; HEK293 cells co-transfected with myc-AP1S3 and FLAG-AP1M1 constructs; lysates precipitated with anti-FLAG, blotted with anti-myc.

One molecule from PMC5070969 can be followed below.

These are yes or no findings as the source states them, for the method shown. Binding seen in cells or lysates may run through a third protein. Some entries that bind do so weakly or less than the wild type. Where a sequence is shown, tags or fusion partners need not be part of it.

B1: wild-type myc-AP1σ1C (protein, UniProt Q96PC3 1-154)
chain: MIHFILLFSRQGKLRLQKWYITLPDKERKKITREIVQIILSRGHRTSSFVDWKELKLVYKRYASLYFCCAIENQDNELLTLEIVHRYVELLDKYFGNVCELDIIFNFEKAYFILDEFIIGGEIQETSKKIAVKAIEDSDMLQEVSTVSQTMGER
With B1, the binding result is recorded as “binds”.
